{"source": "PubChem BioAssay AID651595", "about": "(National Center for Advancing Translational Sciences (NCATS), 2012)", "note": "Fewer than 10 of roughly 1,100 compounds were called active. Another 6% or so got no clear call; they are omitted. The call rests on the fitted dose curve; in most records, active means well fitted cell-killing curve with a large enough effect; inconclusive means small, poorly fitted or top-dose-only effect; inactive means flat fitted curve, though single readings scatter. This is one part of the list. Potency means the concentration at half of the fitted maximal effect.", "data": [{"assay": "qHTS of Nrf2 Activators: Hit Validation in Cytotox Assay;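 further: compound exposure lasted 24 hours before the ATP readout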; on activity change, negative = cytotoxicity: 0% is about no effect", "details": "Cell viability counter-screen for Nrf2 activator hits; series mostly up to 46.1 µM; activity change, negative = cytotoxicity: at the top concentration", "summary_of_the_method": "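Intracellular ATP measured with CellTiter-Glo luminescence (30 min, room temperature) as a viability read-out. Cells: AREc32_fluc, cultured overnight before 24 h compound exposure at 7 concentrations, 37 °C; activity here marks cytotoxicity.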", "values": [{"smiles": "O=C(Nc1ccccc1[N+](=O)[O-])C1COc2ccccc2O1", "note": "(stereo not given)", "activity change, negative = cytotoxicity": "inactive: 1.87%"}, {"smiles": "Cc1ccc(S(=O)(=O)/N=C(/NNC(=O)c2cccc(Cl)c2)c2ccccc2)cc1", "activity change, negative = cytotoxicity": "inactive: -0.738%"}, {"smiles": "OCC1OC(n2cnc3c(NCc4ccccc4O)ncnc32)C(O)C1O", "note": "(stereo not given)", "Potency": "active: 5.17 µM"}, {"smiles": "N#Cc1cccn1-c1nccc(-c2cccs2)n1", "activity change, negative = cytotoxicity": "inactive: 6.19%"}, {"smiles": "Cc1cc(-c2cccs2)nc(-n2cccc2)n1", "activity change, negative = cytotoxicity": "inactive: 4.06%"}, {"smiles": "O=c1[nH]ncc(N/N=C\\c2cccs2)c1Cl", "activity change, negative = cytotoxicity": "inactive: 2.39%"}, {"smiles": "CN1CCCC1CCNc1ccc2c(=O)c3ccccc3oc2c1", "note": "(stereo not given)", "activity change, negative = cytotoxicity": "inactive: 0.572%"}, {"smiles": "O=C(NCCc1ccccn1)c1c(-c2ccsc2)sc2ccccc12", "activity change, negative = cytotoxicity": "inactive: 4.77%"}, {"smiles": "Fc1ccc2nc(Nc3nc4c(F)cc(F)cc4s3)sc2c1", "activity change, negative = cytotoxicity": "inactive: -20.6%"}, {"smiles": "O=C(CCS(=O)(=O)c1ccccc1)Nc1nc2c(s1)COc1ccccc1-2", "activity change, negative = cytotoxicity": "inactive: 5.27%"}, {"smiles": "O=C(Nc1ccccc1)c1cc([N+](=O)[O-])ccc1Cl", "activity change, negative = cytotoxicity": "inactive: 4.32%"}, {"smiles": "O=c1cc(-c2ccco2)nc(SCc2cccc(Cl)c2)[nH]1", "activity change, negative = cytotoxicity": "inactive: -0.452%"}, {"smiles": "Cc1cc(C)cc(OC(=O)CS(=O)c2ccc(C(F)(F)F)cc2[N+](=O)[O-])c1", "note": "(stereo not given)", "activity change, negative = cytotoxicity": "inactive: -16.8%"}, {"smiles": "Clc1cc(Cl)cc(Nc2ncnc(-n3cccc3)n2)c1", "activity change, negative = cytotoxicity": "inactive: 8.55%"}, {"smiles": "Cc1cccc(NC(=S)NC(=O)c2cccs2)n1", "activity change, negative = cytotoxicity": "inactive: 6%"}, {"smiles": "COC(=O)c1ccc2nc(-c3cccc(Br)c3)c(Cc3ccccc3OC)n2c1", "activity change, negative = cytotoxicity": "inactive: -1.22%"}, {"smiles": "COCCNC(=O)c1ccc(-n2c(-c3ccccc3)cc3c2CCC(C)C3)cc1", "note": "(stereo not given)", "activity change, negative = cytotoxicity": "inactive: -2.26%"}, {"smiles": "O=C(Nc1nc2c(ccc3ccccc32)s1)c1ccco1", "activity change, negative = cytotoxicity": "inactive: -0.36%"}, {"smiles": "N#Cc1cnc2cc(-c3ccccc3)nn2c1N", "activity change, negative = cytotoxicity": "inactive: 9.63%"}, {"smiles": "S=C(NCc1ccco1)Nc1ccccn1", "activity change, negative = cytotoxicity": "inactive: -4.48%"}, {"smiles": "CCOc1ccccc1NC(=O)C1COc2ccccc2O1", "note": "(stereo not given)", "activity change, negative = cytotoxicity": "inactive: -1.63%"}, {"smiles": "c1coc(-c2ccnc(-n3cccc3)n2)c1", "activity change, negative = cytotoxicity": "inactive: -3.75%"}, {"smiles": "C#CCOc1ccc(/C=C2\\SC(=S)N(Cc3cccnc3)C2=O)cc1", "activity change, negative = cytotoxicity": "inactive: -21.8%"}, {"smiles": "CSc1ccccc1NC(=O)COC(=O)/C=C/c1ccco1", "activity change, negative = cytotoxicity": "inactive: -3.1%"}, {"smiles": "Fc1cccc2sc(Nc3nc4ccccc4s3)nc12", "activity change, negative = cytotoxicity": "inactive: 3%"}, {"smiles": "Cc1ccc(N=C2NC(=O)S/C2=C\\c2ccco2)cc1", "activity change, negative = cytotoxicity": "inactive: -1.78%"}, {"smiles": "O=C(Nc1c(O)c2ccccc2[nH]c1=O)c1ccco1", "activity change, negative = cytotoxicity": "inactive: 1.15%"}, {"smiles": "c1ccc2c(c1)nnn2-c1ncnc2sccc12", "activity change, negative = cytotoxicity": "inactive: 3.73%"}, {"smiles": "CCCn1c(-c2cccs2)nc2nc3ccccc3nc21", "activity change, negative = cytotoxicity": "inactive: 5.71%"}, {"smiles": "NC(=O)N/N=C/c1ccccc1OC(=O)c1ccccc1Br", "activity change, negative = cytotoxicity": "inactive: 3.21%"}, {"smiles": "FC(F)(F)c1nnc2c(Sc3ccccn3)nc3ccccc3n12", "activity change, negative = cytotoxicity": "inactive: 10.5%"}, {"smiles": "Cc1cccc(-c2nnc(-c3cccc4ccccc34)o2)c1", "activity change, negative = cytotoxicity": "inactive: 0.386%"}, {"smiles": "O=C(CN1C(=O)S/C(=C\\c2ccccc2Cl)C1=O)NC1C=CS(=O)(=O)C1", "note": "(stereo not given)", "activity change, negative = cytotoxicity": "inactive: 3.21%"}, {"smiles": "Cc1cc(C)c2c(N)c(C(=O)c3ccc(Br)cc3)oc2n1", "activity change, negative = cytotoxicity": "inactive: -19.8%"}, {"smiles": "O=C(Nc1cc(-c2nc3ncccc3o2)ccc1Cl)c1cccs1", "activity change, negative = cytotoxicity": "inactive: -12.6%"}, {"smiles": "Cc1n[nH]c(=S)n1/N=C/c1ccc(-c2ccccc2[N+](=O)[O-])o1", "activity change, negative = cytotoxicity": "inactive: 4.13%"}, {"smiles": "O=[N+]([O-])c1ccccc1/C=C/C=N/n1c(-c2ccco2)n[nH]c1=S", "activity change, negative = cytotoxicity": "inactive: 9.42%"}, {"smiles": "Cc1ccc2ccc(C3C(=O)c4ccccc4C3=O)nc2c1", "activity change, negative = cytotoxicity": "inactive: 3.2%"}, {"smiles": "O=C(COCc1cc(-c2ccc(F)cc2)on1)Nc1cc(Cl)ccc1O", "activity change, negative = cytotoxicity": "inactive: -14.5%"}, {"smiles": "c1ccc(-c2cc3c(ccc4nonc43)nn2)cc1", "activity change, negative = cytotoxicity": "inactive: 0.408%"}, {"smiles": "O=C1NC(=Nc2ccccc2)S/C1=C\\C=C\\c1ccco1", "activity change, negative = cytotoxicity": "inactive: 2.3%"}, {"smiles": "O=C1/C(=C/c2ccccc2O)SC(=S)N1Cc1cccnc1", "activity change, negative = cytotoxicity": "inactive: 4.53%"}, {"smiles": "CCc1ccc(/C=C/c2c([N+](=O)[O-])c(=O)n(C)c(=O)n2C)cc1", "activity change, negative = cytotoxicity": "inactive: 5.21%"}, {"smiles": "CCOC(=O)CCn1c(=O)c2cccn2c2cccnc21", "activity change, negative = cytotoxicity": "inactive: 7.7%"}, {"smiles": "Nc1nccc(-c2ccc(-n3cccc3)cc2)n1", "activity change, negative = cytotoxicity": "inactive: 7.15%"}, {"smiles": "C#CCSc1nc(-c2cccs2)ccc1C#N", "activity change, negative = cytotoxicity": "inactive: 1.12%"}, {"smiles": "Cc1cc(NC(=O)CC(C)(C)C)nc2c1c(=O)oc1ccccc12", "activity change, negative = cytotoxicity": "inactive: 15.2%"}, {"smiles": "O=C(N/N=C\\c1ccco1)Nc1cccc(Cl)c1", "activity change, negative = cytotoxicity": "inactive: -10.8%"}, {"smiles": "COc1ccccc1NC(=O)/C(C#N)=C/c1cccn1C", "activity change, negative = cytotoxicity": "inactive: 2.18%"}, {"smiles": "O=C(Nc1ccc(F)cc1)c1cc2ccccc2o1", "activity change, negative = cytotoxicity": "inactive: -16.7%"}, {"smiles": "CC(=NNc1ccc2ccccc2n1)c1ccccc1O", "activity change, negative = cytotoxicity": "inactive: -19.7%"}, {"smiles": "CN1CCN(C(=O)CCN2C(=O)/C(=C/c3cccc(Br)c3)SC2=S)CC1", "activity change, negative = cytotoxicity": "inactive: 4.95%"}, {"smiles": "Cc1c(=O)n(OCc2ccccc2)c2ccccc2[n+]1[O-]", "activity change, negative = cytotoxicity": "inactive: 3.85%"}, {"smiles": "N#CC(=C1C=CC(=NO)C(Cl)=C1)c1ccccc1", "activity change, negative = cytotoxicity": "inactive: 2.92%"}, {"smiles": "O=C1c2cccc3cccc(c23)C(=O)N1Cc1ccco1", "activity change, negative = cytotoxicity": "inactive: 6.26%"}, {"smiles": "O=C(NC(=S)Nc1ccc(Br)cn1)c1cccs1", "activity change, negative = cytotoxicity": "inactive: 2%"}, {"smiles": "COc1cc2c(cc1NC(=O)c1ccco1)CCCC2", "activity change, negative = cytotoxicity": "inactive: 9.72%"}, {"smiles": "C(=N\\Nc1nc2ccccc2[nH]1)/c1c[nH]c2ccccc12", "activity change, negative = cytotoxicity": "inactive: 11.7%"}, {"smiles": "Cc1c(C(=O)NCc2ccco2)oc2c(Cl)cccc12", "activity change, negative = cytotoxicity": "inactive: -2.64%"}, {"smiles": "Cc1ccc(Cc2c(-c3ccco3)nc3c(C)cc(Br)cn23)cc1", "activity change, negative = cytotoxicity": "inactive: 2.16%"}, {"smiles": "O=C(NCc1ccco1)c1ccccc1-c1nc(-c2ccccc2)no1", "activity change, negative = cytotoxicity": "inactive: -21.8%"}, {"smiles": "COc1ccc(Cl)cc1C(=O)O/N=C(\\N)c1ccccn1", "activity change, negative = cytotoxicity": "inactive: -3.19%"}, {"smiles": "c1ccc2c(-c3nc4ncccc4o3)cccc2c1", "activity change, negative = cytotoxicity": "inactive: -2%"}, {"smiles": "CC1(C)CC[C@]2(C(=O)n3ccnc3)CC[C@]3(C)[C@H](C(=O)C=C4[C@@]5(C)C=C(C#N)C(=O)C(C)(C)[C@@H]5CC[C@]43C)[C@@H]2C1", "Potency": "active: 8.2 µM"}, {"smiles": "COc1ccc([C@H]2Cc3cccc(O)c3C(=O)O2)cc1O", "activity change, negative = cytotoxicity": "inactive: 1.16%"}, {"smiles": "O=C(CC1S/C(=N/N=C/c2ccco2)NC1=O)Nc1ccccc1", "note": "(stereo not given)", "activity change, negative = cytotoxicity": "inactive: 2.97%"}, {"smiles": "Cc1cccc(NC(=O)Nc2ccccc2[N+](=O)[O-])n1", "activity change, negative = cytotoxicity": "inactive: 5.2%"}, {"smiles": "COc1ccc(-c2cc3ccccc3oc2=O)cc1NC(=O)c1ccc([N+](=O)[O-])o1", "activity change, negative = cytotoxicity": "inactive: -9.05%"}, {"smiles": "O=C(/C=C/c1ccco1)NC(=S)Nc1nc(-c2ccc(Cl)cc2)cs1", "activity change, negative = cytotoxicity": "inactive: -26.2%"}, {"smiles": "N#C/C(=C(/O)c1ccc(Br)s1)c1nc2ccccc2[nH]1", "activity change, negative = cytotoxicity": "inactive: -1.87%"}, {"smiles": "CCCc1c(C(=O)N/N=C/c2cccs2)nnn1-c1nonc1N", "activity change, negative = cytotoxicity": "inactive: 0.781%"}, {"smiles": "O=C(/C=C/c1ccccc1Cl)Nn1cnc2ccccc2c1=O", "activity change, negative = cytotoxicity": "inactive: -1.79%"}, {"smiles": "O=C(Nc1cc(Br)ccc1O)c1cnn2c(C(F)F)cc(C3CC3)nc12", "activity change, negative = cytotoxicity": "inactive: 14.6%"}, {"smiles": "Cc1cc(O)c(NC(=O)c2cc([N+](=O)[O-])ccc2Cl)cc1C", "activity change, negative = cytotoxicity": "inactive: 1.19%"}, {"smiles": "Oc1ccccc1-n1nc2ccc3nonc3c2n1", "activity change, negative = cytotoxicity": "inactive: 2.24%"}]}]}
